The supplement of paper PMC10849652
This is one part of the list.

Protein sequences, listed by entry. Tags and fused reporters are not part of them. Lines headed by an entry give the natural chain unless they say otherwise; changes in a name come on top.
UniProt Q9Y6I9: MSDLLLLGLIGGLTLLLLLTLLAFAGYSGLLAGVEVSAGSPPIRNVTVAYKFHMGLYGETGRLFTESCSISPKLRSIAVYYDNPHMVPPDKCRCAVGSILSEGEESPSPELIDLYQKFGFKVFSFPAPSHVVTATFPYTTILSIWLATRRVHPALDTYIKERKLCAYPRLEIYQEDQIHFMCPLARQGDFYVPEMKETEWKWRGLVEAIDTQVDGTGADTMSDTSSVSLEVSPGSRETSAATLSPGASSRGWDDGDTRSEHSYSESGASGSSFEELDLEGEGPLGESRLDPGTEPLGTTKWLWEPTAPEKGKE
UniProt A2RTX5: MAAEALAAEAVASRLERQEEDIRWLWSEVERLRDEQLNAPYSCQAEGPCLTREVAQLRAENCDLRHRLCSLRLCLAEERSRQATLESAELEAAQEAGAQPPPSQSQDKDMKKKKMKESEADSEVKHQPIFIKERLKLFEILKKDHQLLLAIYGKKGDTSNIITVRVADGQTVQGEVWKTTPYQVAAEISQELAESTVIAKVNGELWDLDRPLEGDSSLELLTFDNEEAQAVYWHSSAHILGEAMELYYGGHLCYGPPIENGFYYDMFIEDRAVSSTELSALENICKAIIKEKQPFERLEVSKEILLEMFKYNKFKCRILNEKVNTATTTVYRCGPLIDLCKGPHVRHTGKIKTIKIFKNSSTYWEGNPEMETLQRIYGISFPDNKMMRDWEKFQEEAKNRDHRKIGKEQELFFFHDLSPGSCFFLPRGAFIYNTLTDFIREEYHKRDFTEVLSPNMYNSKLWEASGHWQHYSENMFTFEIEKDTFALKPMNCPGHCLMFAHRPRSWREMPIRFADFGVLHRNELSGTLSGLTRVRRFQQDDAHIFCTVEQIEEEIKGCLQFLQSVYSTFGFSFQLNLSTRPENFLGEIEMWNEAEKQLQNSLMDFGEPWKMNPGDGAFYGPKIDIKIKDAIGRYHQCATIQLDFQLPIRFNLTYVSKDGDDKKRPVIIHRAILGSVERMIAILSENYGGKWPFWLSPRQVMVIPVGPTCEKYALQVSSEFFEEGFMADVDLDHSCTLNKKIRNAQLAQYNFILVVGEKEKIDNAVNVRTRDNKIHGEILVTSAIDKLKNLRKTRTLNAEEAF
UniProt Q9BZK7: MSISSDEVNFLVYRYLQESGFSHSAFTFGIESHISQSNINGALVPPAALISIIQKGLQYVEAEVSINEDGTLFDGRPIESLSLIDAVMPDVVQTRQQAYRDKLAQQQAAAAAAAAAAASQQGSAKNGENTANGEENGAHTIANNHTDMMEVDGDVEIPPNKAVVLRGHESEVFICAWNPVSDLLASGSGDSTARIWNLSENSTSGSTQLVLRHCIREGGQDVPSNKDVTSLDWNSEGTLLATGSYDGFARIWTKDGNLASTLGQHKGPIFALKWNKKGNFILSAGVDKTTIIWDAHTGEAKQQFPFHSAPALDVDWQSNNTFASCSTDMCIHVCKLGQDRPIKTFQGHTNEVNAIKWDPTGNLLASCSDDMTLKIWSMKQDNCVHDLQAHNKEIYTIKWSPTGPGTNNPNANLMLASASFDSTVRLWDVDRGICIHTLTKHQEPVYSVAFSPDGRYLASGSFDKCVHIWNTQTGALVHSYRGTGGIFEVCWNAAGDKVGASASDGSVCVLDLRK
UniProt Q969Z0: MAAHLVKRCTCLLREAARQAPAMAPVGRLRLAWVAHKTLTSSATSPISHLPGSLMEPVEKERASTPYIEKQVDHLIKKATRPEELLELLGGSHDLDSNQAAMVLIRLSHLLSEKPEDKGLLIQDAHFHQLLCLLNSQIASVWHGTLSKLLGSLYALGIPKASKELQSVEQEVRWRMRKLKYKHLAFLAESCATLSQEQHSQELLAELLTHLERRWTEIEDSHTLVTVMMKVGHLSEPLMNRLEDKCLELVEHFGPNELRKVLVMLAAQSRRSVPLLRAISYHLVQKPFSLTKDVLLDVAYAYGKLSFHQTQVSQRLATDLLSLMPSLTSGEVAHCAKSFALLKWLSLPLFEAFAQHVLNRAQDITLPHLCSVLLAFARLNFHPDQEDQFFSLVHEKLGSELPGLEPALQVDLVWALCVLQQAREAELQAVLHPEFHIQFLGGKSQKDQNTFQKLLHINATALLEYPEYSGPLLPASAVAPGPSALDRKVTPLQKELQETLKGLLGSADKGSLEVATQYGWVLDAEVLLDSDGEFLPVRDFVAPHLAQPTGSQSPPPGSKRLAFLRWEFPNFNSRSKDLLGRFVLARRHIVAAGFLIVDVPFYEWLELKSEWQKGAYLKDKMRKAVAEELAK
UniProt Q12788: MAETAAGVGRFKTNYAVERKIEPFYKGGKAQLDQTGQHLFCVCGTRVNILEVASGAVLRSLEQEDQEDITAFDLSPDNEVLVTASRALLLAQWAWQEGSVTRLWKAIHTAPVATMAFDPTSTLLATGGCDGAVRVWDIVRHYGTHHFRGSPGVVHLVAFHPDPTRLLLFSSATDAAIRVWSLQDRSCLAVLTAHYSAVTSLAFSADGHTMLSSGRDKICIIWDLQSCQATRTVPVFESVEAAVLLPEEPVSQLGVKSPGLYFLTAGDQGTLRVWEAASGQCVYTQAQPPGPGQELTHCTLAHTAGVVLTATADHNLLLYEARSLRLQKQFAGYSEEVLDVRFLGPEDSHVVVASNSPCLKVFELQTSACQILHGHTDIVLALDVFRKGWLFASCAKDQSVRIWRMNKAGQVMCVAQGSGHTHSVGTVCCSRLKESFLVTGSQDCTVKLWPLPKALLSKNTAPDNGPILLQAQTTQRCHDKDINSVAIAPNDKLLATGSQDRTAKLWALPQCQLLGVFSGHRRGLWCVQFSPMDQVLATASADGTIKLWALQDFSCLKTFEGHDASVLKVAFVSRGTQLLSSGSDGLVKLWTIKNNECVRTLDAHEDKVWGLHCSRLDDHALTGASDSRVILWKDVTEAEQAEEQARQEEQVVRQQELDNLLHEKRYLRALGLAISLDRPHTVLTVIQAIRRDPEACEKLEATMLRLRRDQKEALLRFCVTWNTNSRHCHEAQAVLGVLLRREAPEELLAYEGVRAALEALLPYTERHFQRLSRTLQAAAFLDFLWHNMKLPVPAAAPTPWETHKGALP
UniProt Q9UP52: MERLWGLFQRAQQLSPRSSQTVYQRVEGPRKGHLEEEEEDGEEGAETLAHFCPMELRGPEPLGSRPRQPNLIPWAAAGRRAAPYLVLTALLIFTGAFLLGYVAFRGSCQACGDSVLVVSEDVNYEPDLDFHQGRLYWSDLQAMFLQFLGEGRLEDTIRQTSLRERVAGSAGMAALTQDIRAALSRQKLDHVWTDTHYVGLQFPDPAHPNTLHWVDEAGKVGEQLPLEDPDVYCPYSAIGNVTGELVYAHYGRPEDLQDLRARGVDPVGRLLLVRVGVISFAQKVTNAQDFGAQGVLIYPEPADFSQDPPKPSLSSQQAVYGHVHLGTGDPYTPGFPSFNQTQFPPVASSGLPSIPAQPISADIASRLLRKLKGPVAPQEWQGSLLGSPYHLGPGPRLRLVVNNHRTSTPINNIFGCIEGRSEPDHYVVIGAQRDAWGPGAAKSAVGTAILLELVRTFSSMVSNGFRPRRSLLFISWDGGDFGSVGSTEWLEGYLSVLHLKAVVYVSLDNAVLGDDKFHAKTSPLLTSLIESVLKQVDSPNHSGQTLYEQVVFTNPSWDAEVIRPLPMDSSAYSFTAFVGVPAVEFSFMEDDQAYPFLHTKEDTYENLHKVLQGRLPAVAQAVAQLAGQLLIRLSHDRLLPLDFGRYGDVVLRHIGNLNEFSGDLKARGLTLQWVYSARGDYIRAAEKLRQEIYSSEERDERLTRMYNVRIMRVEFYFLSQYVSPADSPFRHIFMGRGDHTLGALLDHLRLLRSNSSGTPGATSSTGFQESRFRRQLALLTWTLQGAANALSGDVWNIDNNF
UniProt Q99081: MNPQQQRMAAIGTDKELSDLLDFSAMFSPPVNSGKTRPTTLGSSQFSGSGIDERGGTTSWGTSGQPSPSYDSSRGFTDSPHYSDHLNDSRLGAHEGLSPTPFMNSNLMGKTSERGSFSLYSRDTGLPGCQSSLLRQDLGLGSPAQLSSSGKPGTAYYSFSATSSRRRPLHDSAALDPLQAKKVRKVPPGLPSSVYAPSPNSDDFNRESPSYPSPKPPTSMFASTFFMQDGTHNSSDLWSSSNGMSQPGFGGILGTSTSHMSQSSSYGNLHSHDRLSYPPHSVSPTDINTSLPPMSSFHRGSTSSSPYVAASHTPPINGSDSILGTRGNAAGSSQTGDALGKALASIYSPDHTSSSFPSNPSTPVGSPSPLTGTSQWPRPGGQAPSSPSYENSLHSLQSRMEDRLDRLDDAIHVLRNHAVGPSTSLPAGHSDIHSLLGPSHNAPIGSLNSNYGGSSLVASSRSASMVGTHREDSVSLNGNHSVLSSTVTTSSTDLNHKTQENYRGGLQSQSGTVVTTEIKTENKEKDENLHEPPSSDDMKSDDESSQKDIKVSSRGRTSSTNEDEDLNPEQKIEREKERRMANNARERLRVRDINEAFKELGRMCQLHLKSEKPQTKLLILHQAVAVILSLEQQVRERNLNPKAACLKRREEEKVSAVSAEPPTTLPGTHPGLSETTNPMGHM
UniProt Q9BTW9: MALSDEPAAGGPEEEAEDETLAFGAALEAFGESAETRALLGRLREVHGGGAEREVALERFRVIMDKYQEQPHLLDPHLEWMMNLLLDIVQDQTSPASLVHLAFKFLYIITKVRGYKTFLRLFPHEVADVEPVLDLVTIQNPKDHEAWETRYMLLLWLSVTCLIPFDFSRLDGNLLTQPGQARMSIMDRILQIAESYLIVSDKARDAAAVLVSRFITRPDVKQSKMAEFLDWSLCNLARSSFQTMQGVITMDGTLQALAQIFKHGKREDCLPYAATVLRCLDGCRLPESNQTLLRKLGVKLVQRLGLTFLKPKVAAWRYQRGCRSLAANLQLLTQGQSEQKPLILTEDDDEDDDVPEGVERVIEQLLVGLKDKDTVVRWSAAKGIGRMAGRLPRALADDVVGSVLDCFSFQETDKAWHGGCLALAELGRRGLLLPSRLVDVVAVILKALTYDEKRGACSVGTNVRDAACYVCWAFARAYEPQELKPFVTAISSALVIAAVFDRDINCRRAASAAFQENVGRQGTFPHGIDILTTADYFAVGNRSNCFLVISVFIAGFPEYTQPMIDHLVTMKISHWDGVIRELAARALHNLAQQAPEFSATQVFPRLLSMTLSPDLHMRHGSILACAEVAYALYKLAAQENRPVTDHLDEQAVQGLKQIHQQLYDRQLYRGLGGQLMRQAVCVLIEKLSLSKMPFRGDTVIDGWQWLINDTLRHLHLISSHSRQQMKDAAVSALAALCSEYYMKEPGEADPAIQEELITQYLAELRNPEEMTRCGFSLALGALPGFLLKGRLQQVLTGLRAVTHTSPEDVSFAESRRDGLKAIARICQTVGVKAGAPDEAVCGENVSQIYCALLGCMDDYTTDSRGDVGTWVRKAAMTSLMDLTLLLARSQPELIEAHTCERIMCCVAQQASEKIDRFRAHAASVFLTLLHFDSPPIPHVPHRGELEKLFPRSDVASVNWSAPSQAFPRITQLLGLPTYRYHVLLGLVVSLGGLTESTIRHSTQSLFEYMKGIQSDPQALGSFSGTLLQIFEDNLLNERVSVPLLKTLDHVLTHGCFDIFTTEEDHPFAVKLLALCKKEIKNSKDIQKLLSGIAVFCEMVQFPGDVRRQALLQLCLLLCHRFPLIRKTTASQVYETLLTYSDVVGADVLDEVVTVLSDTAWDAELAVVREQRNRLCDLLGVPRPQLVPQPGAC
UniProt O75347: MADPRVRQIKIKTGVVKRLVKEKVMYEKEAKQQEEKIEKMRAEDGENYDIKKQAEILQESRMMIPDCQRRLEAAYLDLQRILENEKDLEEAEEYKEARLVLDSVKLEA
UniProt Q9BW92: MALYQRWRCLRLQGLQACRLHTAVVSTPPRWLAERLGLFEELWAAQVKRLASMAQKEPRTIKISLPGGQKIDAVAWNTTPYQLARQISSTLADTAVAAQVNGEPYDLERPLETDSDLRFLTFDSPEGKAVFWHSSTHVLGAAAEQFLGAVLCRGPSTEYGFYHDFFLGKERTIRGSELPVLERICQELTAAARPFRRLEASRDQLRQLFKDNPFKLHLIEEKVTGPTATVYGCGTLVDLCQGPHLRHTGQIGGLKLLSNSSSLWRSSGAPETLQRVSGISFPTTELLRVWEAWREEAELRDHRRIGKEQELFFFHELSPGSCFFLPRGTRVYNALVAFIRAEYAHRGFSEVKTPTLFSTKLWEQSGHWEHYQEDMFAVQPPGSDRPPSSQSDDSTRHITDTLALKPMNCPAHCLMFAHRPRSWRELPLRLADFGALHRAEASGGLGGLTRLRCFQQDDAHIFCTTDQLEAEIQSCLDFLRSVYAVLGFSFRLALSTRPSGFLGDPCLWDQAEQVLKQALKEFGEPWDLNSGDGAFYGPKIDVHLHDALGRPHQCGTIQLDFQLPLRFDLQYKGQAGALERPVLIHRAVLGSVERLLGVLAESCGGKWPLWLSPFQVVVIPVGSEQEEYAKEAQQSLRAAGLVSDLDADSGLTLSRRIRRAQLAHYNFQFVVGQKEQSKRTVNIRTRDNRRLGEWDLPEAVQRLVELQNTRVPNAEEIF

Experiments:
Experiment in all cases: log2 fold change, soluble protein after heating vs DMSO (PISA); higher = thermal stabilisation; K562 lysate, 10 uM; active = over 0.2 and 3.5 SD of the protein, either way, in both replicates (recomputed)
[1] = compound: Cc1cn(-c2cc(NC(=O)c3ccc(C)c(Nc4nccc(-c5cccnc5)n4)c3)cc(C(F)(F)F)c2)cn1 [nilotinib]
How it was run: (§1)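 Dounce homogenisation of K562 pellets in PBS pH 7.4 with 1 mM MgCl2 produced a crude extract, used at 1 mg/mL protein. Exposure to 10 μM compound lasted 30 min, and aliquots were then heated for 3 min across 48°C-58°C, pooled and brought to 0.5% NP-40 at 4°C. The supernatant after 21,000xg for 90 min was quantified by TMTpro 16plex LC-MS/MS with channel sums equalised. Duplicate values are given as log-two fold change in thermal stability relative to solvent controls.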

[2] = compound: Cc1nc(Nc2n[nH]c3c2CN(C(=O)N[C@H](CN(C)C)c2ccccc2)C3(C)C)c2sccc2n1
How it was run: as §1

[3] = compound: Cc1nc(Nc2ncc(C(=O)Nc3c(C)cccc3Cl)s2)cc(N2CCN(CCO)CC2)n1 [dasatinib]
How it was run: as §1

[4] = compound: Cc1ncc(-c2ccnc(Nc3ccc(S(C)(=O)=O)cc3)n2)n1C(C)C
How it was run: as §1

[5] = compound: Cn1cc(-c2ccc3c(c2)CCN3C(=O)Cc2cccc(C(F)(F)F)c2)c2c(N)ncnc21
How it was run: as §1

[6] = compound: Cn1cc(CNCC2CCN(c3ncc(C(=O)NO)cn3)CC2)c2ccccc21 [quisinostat]
How it was run: as §1

[7] = compound: Cn1cncc1[C@@](N)(c1ccc(Cl)cc1)c1ccc2c(c1)c(-c1cccc(Cl)c1)cc(=O)n2C [tipifarnib]
How it was run: as §1

[8] = compound: NC(=O)Nc1cc(-c2cccc(F)c2)sc1C(=O)N[C@H]1CCCNC1
How it was run: as §1

[9] = compound: NC(=O)c1cnc(N[C@@H]2CCCC[C@@H]2N)nc1Nc1cccc(-n2nccn2)c1
How it was run: as §1

[10] = compound: NC1(c2ccc(-c3nc4ccn5c(=O)[nH]nc5c4cc3-c3ccccc3)cc2)CCC1
How it was run: as §1

[11] = compound: NCC(=O)Nc1ccc(-n2nc(C(F)(F)F)cc2-c2ccc3c(ccc4ccccc43)c2)cc1
How it was run: as §1

[12] = compound: O=C(CCCCCCC(=O)Nc1ccccc1)NO [vorinostat]
How it was run: as §1

[13] = compound: O=C(O)c1ccc2c(c1)nc(Nc1cccc(Cl)c1)c1ccncc12 [silmitasertib]
How it was run: as §1

[14] = compound: O=C1NC(=O)C(c2cnc3ccccn23)=C1c1cn2c3c(cc(F)cc13)CN(C(=O)N1CCCCC1)CC2
How it was run: as §1

[15] = compound: c1cn2cc(-c3ccc4cn[nH]c4c3)nc(Nc3ccc(N4CCOCC4)cc3)c2n1 [entospletinib]
How it was run: as §1

Measured: log2 fold change

TBC1D10B (UniProt Q4KMP7)
inactive: [1] -0.042 | [2] 0.019 | [3] -0.028 | [4] -0.038 | [5] 0.024 | [6] 0.076 | [7] 0.026 | [8] 0.011 | [9] -0.049 | [10] 0.015 | [11] -0.03 | [12] -0.018 | [13] -0.028 | [14] 0.005 | [15] 0.045

TEX264 (UniProt Q9Y6I9)
inactive: [1] 0.085 | [2] 0.043 | [3] 0.045 | [4] 0.474 | [5] -0.09 | [6] 0.068 | [7] -0.103 | [8] 0.181 | [9] -0.067 | [10] -0.017 | [11] -0.041 | [12] 0.259 | [13] 0.016 | [14] -0.075 | [15] 0.324

TATDN3 isoform 3 (UniProt Q17R31)
inactive: [1] 0.002 | [2] -0.004 | [3] -0.065 | [4] 0.008 | [5] -0.026 | [6] -0.112 | [7] 0.01 | [8] 0.011 | [9] -0.038 | [10] -0.01 | [11] 0.016 | [12] 0.089 | [13] 0.004 | [14] -0.042 | [15] 0.018

TARSL2 (UniProt A2RTX5)
inactive: [1] 0.025 | [2] 0.056 | [3] -0.056 | [4] 0.034 | [5] 0.013 | [6] -0.068 | [7] -0.016 | [8] -0.008 | [9] 0.012 | [10] -0.016 | [11] 0.012 | [12] 0.013 | [13] -0.003 | [14] 0.001 | [15] 0.009

TBL1XR1 (UniProt Q9BZK7)
inactive: [1] 0.087 | [2] 0.028 | [3] -0.043 | [4] 0.018 | [5] 0.005 | [6] -0.032 | [7] -0.055 | [8] 0.016 | [9] -0.009 | [10] 0.007 | [11] 0.015 | [12] -0.078 | [13] -0.01 | [14] 0.016 | [15] -0.025

TCP1 (UniProt P17987)
inactive: [1] 0.001 | [2] -0.015 | [3] 0.013 | [4] -0.004 | [5] -0.007 | [6] 0.018 | [7] 0.007 | [8] -0.02 | [9] -0.011 | [10] 0.022 | [11] 0.008 | [12] -0.014 | [13] 0.016 | [14] 0.002 | [15] 0.02

TBC1D22B (UniProt Q9NU19)
inactive: [1] 0.02 | [2] -0.063 | [3] -0.013 | [4] -0.087 | [5] -0.068 | [6] 0.048 | [7] -0.031 | [8] -0.004 | [9] 0.009 | [10] -0.071 | [11] -0.06 | [12] 0.007 | [13] 0.049 | [14] -0.089 | [15] -0.024

TBRG4 (UniProt Q969Z0)
inactive: [1] -0.016 | [2] -0.03 | [3] -0.035 | [4] 0.007 | [5] 0.059 | [6] 0.004 | [7] -0.006 | [8] 0.038 | [9] 0.022 | [10] 0.019 | [11] 0.017 | [12] -0.238 | [13] 0.034 | [14] 0.008 | [15] 0.042

TFAM (UniProt Q00059)
inactive: [1] 0.003 | [2] -0.038 | [3] -0.003 | [4] 0.021 | [5] 0.016 | [6] 0.074 | [7] 0.051 | [8] -0.007 | [9] 0 | [10] 0.001 | [11] -0.02 | [12] 0.099 | [13] -0.026 | [14] 0.002 | [15] 0.015

TBK1 (UniProt Q9UHD2)
active: [2] 0.618
inactive: [1] -0.003 | [3] 0.029 | [4] 0.125 | [5] 0.251 | [6] -0.097 | [7] -0.026 | [8] 0.209 | [9] 0.032 | [10] -0.074 | [11] -0.04 | [12] -0.361 | [13] 0.189 | [14] 0.125 | [15] 0.204

TBL3 (UniProt Q12788)
active: [12] -0.263
inactive: [1] -0.009 | [2] 0.025 | [3] -0.013 | [4] 0.016 | [5] 0.011 | [6] -0.046 | [7] 0.008 | [8] 0.056 | [9] -0.032 | [10] -0.052 | [11] 0.015 | [13] -0.011 | [14] -0.001 | [15] -0.023

TECR (UniProt Q9NZ01)
inactive: [1] -0.06 | [2] 0.018 | [3] -0.062 | [4] -0.011 | [5] -0.043 | [6] -0.024 | [7] -0.09 | [8] 0.041 | [9] -0.009 | [10] -0.047 | [11] -0.031 | [12] 0.024 | [13] 0.076 | [14] 0.032 | [15] 0.033

TBC1D7 (UniProt Q9P0N9)
inactive: [1] 0.043 | [2] -0.12 | [3] -0.069 | [4] -0.1 | [5] 0.011 | [6] -0.022 | [7] 0.05 | [8] 0.026 | [9] 0.054 | [10] 0.006 | [11] 0.17 | [12] -0.227 | [13] -0.028 | [14] 0.016 | [15] -0.131

TGFB1 (UniProt P01137)
inactive: [1] 0.019 | [2] 0 | [3] 0.027 | [4] -0.025 | [5] -0.007 | [6] 0.045 | [7] -0.034 | [8] 0.037 | [9] 0.009 | [10] -0.021 | [11] -0.001 | [12] 0.108 | [13] -0.002 | [14] 0.012 | [15] -0.037

Copied from the entries so far (two entries):
TECR (UniProt Q9NZ01)
inactive: [1] -0.06 | [2] 0.018 | [3] -0.062 | [4] -0.011 | [5] -0.043 | [6] -0.024 | [7] -0.09 | [8] 0.041 | [9] -0.009 | [10] -0.047 | [11] -0.031 | [12] 0.024 | [13] 0.076 | [14] 0.032 | [15] 0.033

TBC1D7 (UniProt Q9P0N9)
inactive: [1] 0.043 | [2] -0.12 | [3] -0.069 | [4] -0.1 | [5] 0.011 | [6] -0.022 | [7] 0.05 | [8] 0.026 | [9] 0.054 | [10] 0.006 | [11] 0.17 | [12] -0.227 | [13] -0.028 | [14] 0.016 | [15] -0.131

Remaining list, next part.

TANK (UniProt Q92844)
inactive: [1] -0.067 | [3] 0.069 | [4] 0.04 | [5] 0.088 | [6] -0.053 | [7] -0.071 | [8] 0.161 | [9] 0.042 | [10] 0.01 | [11] 0.041 | [12] -0.102 | [13] 0.124 | [14] 0.071 | [15] 0.132
active: [2] 0.461

TFR2 (UniProt Q9UP52)
inactive: [1] 0.025 | [2] -0.019 | [3] 0.009 | [4] -0.007 | [5] -0.004 | [6] 0.011 | [7] -0.029 | [8] 0.006 | [9] -0.031 | [10] -0.005 | [11] 0.036 | [12] 0.091 | [13] -0.023 | [14] -0.024 | [15] 0.029

TERF2IP (UniProt Q9NYB0)
inactive: [1] 0.012 | [2] 0.013 | [3] 0.018 | [4] 0.009 | [5] 0.005 | [6] 0.024 | [7] -0.012 | [8] 0.011 | [9] -0.017 | [10] -0.003 | [11] 0.038 | [12] 0.072 | [13] 0.008 | [14] 0.011 | [15] 0.011

TCF12 isoform 3 (UniProt Q99081)
active: [12] -0.263
inactive: [1] -0.031 | [2] 0.016 | [3] 0 | [4] 0.052 | [5] -0.022 | [6] 0.02 | [7] -0.022 | [8] -0.011 | [9] -0.032 | [10] -0.043 | [11] -0.016 | [13] -0.024 | [14] -0.004 | [15] 0.006

TBCD (UniProt Q9BTW9)
inactive: [1] 0.008 | [2] -0.029 | [3] -0.045 | [4] 0.013 | [5] 0.015 | [6] -0.053 | [7] 0.001 | [8] 0.023 | [9] 0.006 | [10] -0.023 | [11] 0.017 | [12] -0.192 | [13] -0.012 | [14] -0.008 | [15] 0.038

TBCA (UniProt O75347)
inactive: [1] 0.006 | [2] -0.022 | [3] 0.005 | [4] -0.025 | [5] -0.074 | [6] 0.051 | [7] 0.016 | [8] -0.074 | [9] 0.016 | [10] 0.007 | [11] -0.005 | [12] 0.054 | [13] 0.014 | [14] -0.014 | [15] 0.006

TARS2 (UniProt Q9BW92)
inactive: [1] 0.198 | [2] -0.019 | [3] -0.039 | [4] 0.091 | [5] 0.054 | [6] -0.134 | [7] -0.015 | [8] 0 | [9] 0.018 | [10] 0.007 | [11] -0.031 | [12] -0.252 | [13] 0.017 | [14] 0.019 | [15] -0.012
